# Results published in publication PMC8913663.
# By UniProt entry, the sequences of proteins in these tests, tags left out.
# UniProt P67809: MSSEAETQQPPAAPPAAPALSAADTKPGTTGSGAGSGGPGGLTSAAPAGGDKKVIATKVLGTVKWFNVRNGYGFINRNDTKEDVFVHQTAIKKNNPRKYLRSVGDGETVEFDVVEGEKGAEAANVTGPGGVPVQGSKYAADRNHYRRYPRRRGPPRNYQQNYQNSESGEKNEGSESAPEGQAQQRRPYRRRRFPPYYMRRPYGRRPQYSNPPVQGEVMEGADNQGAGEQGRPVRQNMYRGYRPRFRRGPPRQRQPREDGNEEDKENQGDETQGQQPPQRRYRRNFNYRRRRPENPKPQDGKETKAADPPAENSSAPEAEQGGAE
# These are yes or no findings as the source states them, for the method shown. Binding seen in cells or lysates may run through a third protein. Some binding calls cover weakened binding; strength is not graded here. For part of these data: Tags and fused reporters may be left off the sequences shown.
# B1: GFP-tagged SIAH1 (enzyme, UniProt Q8IUQ4 1-282)
# chain: MSRQTATALPTGTSKCPPSQRVPALTGTTASNNDLASLFECPVCFDYVLPPILQCQSGHLVCSNCRPKLTCCPTCRGPLGSIRNLAMEKVANSVLFPCKYASSGCEITLPHTEKADHEELCEFRPYSCPCPGASCKWQGSLDAVMPHLMHQHKSITTLQGEDIVFLATDINLPGAVDWVMMQSCFGFHFMLVLEKQEKYDGHQQFFAIVQLIGTRKQAENFAYRLELNGHRRRLTWEATPRSIHEGIATAIMNSDCLVFDTSIAQLFAENGNLGINVTISMC
# B2: SIAH1, endogenous (enzyme, UniProt Q8IUQ4 1-282)
# chain: B1 chain
# Experiments:
# [1] = target: YBX-1, transfected (human) (UniProt P67809); assay: co-IP; lysate of HEK293T cells transfected with expression vectors for GFP-SIAH1, GFP-SIAH1∆N and YBX-1; legend: pulled down by anti-YBX-1, immunoblotted with anti-GFP
# [2] = target: YBX-1 (Y box-binding protein), endogenous (human (endogenous in HEK293T)) (UniProt P67809); assay: co-IP; lysate of HEK293T cells transfected with GFP-tagged SIAH1 or GFP-Vector; 'mutual co-IP'; legend: pulled down by anti-YBX-1, immunoblotted with anti-GFP; magnetic beads, 4 °C overnight
# [3] = target: YBX-1 (Y box-binding protein), endogenous (human (endogenous in HEK293T)) (UniProt P67809); assay: co-IP; lysate of untransfected 293 cells, endogenous proteins; legend: pulled down by anti-YBX-1 and anti-IgG, immunoblotted with anti-SIAH1
binding [1],binding [2],binding [3],Binder
binds,binds,,B1
,,binds,B2
